In patent US20240327542A1:
No constants are given. Whether binding was seen depends on the method and setting. Some results given as binding are weak or reduced against the parent protein; the word gives no strength.

Target: T1, AMG510 conjugated to the poly-Ser peptide containing a central Cys
T1 sequence (peptide, AMG510 conjugated (central Cys); C-terminal (K-long chain Biotin)-amide): SSSSCSSSSW
Test: yeast surface display, flow cytometry (FIG. 6)

binding: binds
B1: P2AMR-12 (protein)
VH: QVQLQESGPGLVKPSETLSLTCTVSGDSIINDPHYWGWIRQSPGKGLEWIGSTSHSGHTYFNPSLKSRVSMSIDVAKNQFSLNVRSVTAADTAVYYCARMRYYYSGTYPVYYFDYWGQGTLVTVSS
